Laboratory results published in patent US9617285B2, “1-hydroxy-benzooxaboroles as antiparasitic agents” (priority 2013, dated 2017).
Some results were stated once for a whole list of compounds, not compound by compound.

Assays:
[1] = tested on: Trichostrongylus colubriformis; test: In vivo gerbil antihelminthic test, T. colubriformis; design: species or system Mongolian gerbils (Meriones unguiculatus); settings: oral gavage and/or subcutaneous injection, dose of not more than 25 mg/kg, benzimidazole-resistant strain
[2] = tested on: Haemonchus contortus; test: In vitro larval migration assay (LMA); settings: L3 larvae; concentration of no greater than 100 μM
[3] = tested on: H. contortus; test: In vivo gerbil antihelminthic test, H. contortus; design: species or system Mongolian gerbils (Meriones unguiculatus); settings: oral gavage and/or subcutaneous injection, dose of not more than 25 mg/kg, triple drug-resistant strain

SMILES	efficacy (% reduction in nematode burden) against T. colubriformis [1] [%]	activity (inhibition of migration) [2] [%]	efficacy (% reduction in nematode burden) against H. contortus [3] [%]
Cc1c(OCC(C)(C#N)NC(=O)c2ccc(OC(F)(F)F)cc2)ccc2c1B(O)OC2 (racemic) [Example 3a, N-(2-cyano-1-(1-hydroxy-7-methyl-1,3-dihydrobenzo[c][1,2]oxaborol-6-yloxy)propan-2-yl)-4-(trifluoromethoxy)benzamide]	≥ 80	≥ 50	≥ 80
C[C@](C#N)(COc1ccc2c(c1Cl)B(O)OC2)NC(=O)c1ccc(OC(F)(F)F)cc1 (single isomer, unassigned) [Example 1]	≥ 80	≥ 50	≥ 80
CC(C#N)(COc1ccc2c(c1C1CC1)B(O)OC2)NC(=O)c1ccc(OC(F)(F)F)cc1 (stereo not shown) [Example 7, N-(2-cyano-1-(7-cyclopropyl-1-hydroxy-1,3-dihydrobenzo[c][1,2]oxaborol-6-yloxy)propan-2-yl)-4-(trifluoromethoxy)benzamide]	≥ 80	≥ 50	≥ 80
CCc1c(OCC(C)(C#N)NC(=O)c2ccc(OC(F)(F)F)cc2)ccc2c1B(O)OC2 (racemic) [Example 4a, N-(2-cyano-1-(7-ethyl-1-hydroxy-1,3-dihydrobenzo[c][1,2]oxaborol-6-yloxy)propan-2-yl)-4-(trifluoromethoxy)benzamide]	≥ 80	≥ 50	≥ 80
CC(C#N)(COc1ccc2c(c1OC1CC1)B(O)OC2)NC(=O)c1ccc(OC(F)(F)F)cc1 (stereo not shown) [Example 53, N-(2-cyano-1-(7-cyclopropoxy-1-hydroxy-1,3-dihydrobenzo[c][1,2]oxaborol-6-yloxy)propan-2-yl)-4-(trifluoromethoxy)benzamide]	–	≥ 50	≥ 80
Cc1cc(OC[C@](C)(C#N)NC(=O)c2ccc(OC(F)(F)F)cc2)c(Cl)c2c1COB2O (single isomer, unassigned) [Example 57]	≥ 80	≥ 50	≥ 80
C[C@](C#N)(COc1ccc2c(c1Cl)B(O)OC2)NC(=O)c1ccc(S(=O)(=O)C(F)(F)F)cc1 (single isomer, unassigned) [Example 17]	≥ 80	≥ 50	≥ 80
CC(C#N)(COc1ccc2c(c1Cl)B(O)OC2)NC(=O)c1ccc(OC(F)(F)F)cc1 (racemic) [Example 1a, N-(1-(7-chloro-1-hydroxy-1,3-dihydrobenzo[c][1,2]oxaborol-6-yloxy)-2-cyanopropan-2-yl)-4-(trifluoromethoxy)benzamide]	≥ 80	≥ 50	≥ 80
CC(C)c1c(OC[C@](C)(C#N)NC(=O)c2ccc(OC(F)(F)F)cc2)ccc2c1B(O)OC2 (single isomer, unassigned) [Example 6]	≥ 80	≥ 50	≥ 80
CCOc1c(OCC(C)(C#N)NC(=O)c2ccc(OC(F)(F)F)cc2)ccc2c1B(O)OC2 (stereo not shown) [Example 8, N-[1-Cyano-2-(7-ethoxy-1-hydroxy-1,3-dihydro-benzo[c][1,2]oxaborol-6-yloxy)-1-methyl-ethyl]-4-trifluoromethoxy-benzamide]	≥ 80	≥ 50	≥ 80
C[C@](C#N)(COc1ccc2c(c1Cl)B(O)OC2)NC(=O)c1ccc(S(F)(F)(F)(F)F)cc1 (single isomer, unassigned) [Example 21]	≥ 80	≥ 50	≥ 80
CN(C)c1c(OCC(C)(C#N)NC(=O)c2ccc(OC(F)(F)F)cc2)ccc2c1B(O)OC2 (stereo not shown) [Example 45, N-(2-cyano-1-(7-(dimethylamino)-1-hydroxy-1,3-dihydrobenzo[c][1,2]oxaborol-6-yloxy)propan-2-yl)-4-(trifluoromethoxy)benzamide]	≥ 80	≥ 50	≥ 80
Cc1cc(OCC(C)(C#N)NC(=O)c2ccc(OC(F)(F)F)cc2)c(Cl)c2c1COB2O (racemic) [Example 42, N-(1-(7-chloro-1-hydroxy-4-methyl-1,3-dihydrobenzo[c][1,2]oxaborol-6-yloxy)-2-cyanopropan-2-yl)-4-(trifluoromethoxy)benzamide]	≥ 80	≥ 50	≥ 80
CC(C#N)(COc1ccc2c(c1Cl)B(O)OC2)NC(=O)c1ccc(SC(F)(F)F)cc1 (stereo not shown) [Example 16, N-(1-(7-chloro-1-hydroxy-1,3-dihydrobenzo[c][1,2]oxaborol-6-yloxy)-2-cyanopropan-2-yl)-4-(trifluoromethylthio)benzamide]	≥ 80	≥ 50	≥ 80
Cc1c(OC[C@](C)(C#N)NC(=O)c2ccc(OC(F)(F)F)cc2)ccc2c1B(O)OC2 (single isomer, unassigned) [Example 3]	≥ 80	≥ 50	≥ 80
CC(C#N)(COc1ccc2c(c1-c1ccco1)B(O)OC2)NC(=O)c1ccc(OC(F)(F)F)cc1 (stereo not shown) [Example 43, N-(2-cyano-1-(7-(furan-2-yl)-1-hydroxy-L3-dihydrobenzo[c][1,2]oxaborol-6-yloxy)propan-2-yl)-4-(trifluoromethoxy)benzamide]	≥ 80	≥ 50	≥ 80
C[C@](C#N)(COc1ccc2c(c1Cl)B(O)OC2)NC(=O)c1ccc(SC(F)(F)F)cc1 (single isomer, unassigned) [Example 18]	≥ 80	≥ 50	≥ 80
CC(C#N)(COc1ccc2c(c1C(F)(F)F)B(O)OC2)NC(=O)c1ccc(OC(F)(F)F)cc1 (stereo not shown) [Example 23, N-(2-cyano-1-(1-hydroxy-7-(trifluoromethyl)-1,3-dihydrobenzo[c][1,2]oxaborol-6-yloxy)propan-2-yl)-4-(trifluoromethoxy)benzamide]	≥ 80	≥ 50	≥ 80
CC(C#N)(COc1ccc2c(c1-c1cccs1)B(O)OC2)NC(=O)c1ccc(OC(F)(F)F)cc1 (stereo not shown) [Example 52, N-(2-cyano-1-(1-hydroxy-7-(thiophen-2-yl)-1,3-dihydrobenzo[c][1,2]oxaborol-6-yloxy)propan-2-yl)-4-(trifluoromethoxy)benzamide]	–	≥ 50	≥ 80
